{"source": "patent US12527872B2", "about": "“PEGylated ICD inducer-IDO inhibitor nanoconjugate, and preparation method and use thereof” (SHANDONG UNIVERSITY, priority 2019, dated 2026)", "experiment": "Average weight of treated tumor-bearing mice (tolerability)", "format": "in vivo", "details": "BALB/c mice injected with 4T1 cells, treated every three days; FIG. 9", "note": "Some of these results come from one statement about several compounds together.", "data": [{"smiles": "Cn1cc(C[C@@H](N)C(=O)O)c2ccccc21", "note": "[free 1-MT, 1-methyl-D-tryptophan]", "values": [{"measurement": "average weight loss compared to the saline-treated control", "result": "less than 15%"}]}]}
